Results as given in article PMC12321389.
Results are given in words; binding and its absence hold for the method and conditions named. For some assays here: In cells and extracts the contact can be indirect. Some results given as binding are weak or reduced against the parent protein; the word gives no strength.

Experiments:
[1] = target: T1, CD14 (endogenous, RAW264.7 cells) (mouse (endogenous in RAW264.7)) (UniProt P10810); assay: co-IP; RAW264.7 cells serum-starved 5 h, treated with 100 ng/mL recombinant murine CXCL10 for 1 h, washed, lysed in RIPA buffer; lysate incubated with anti-CD14 (also anti-TLR2, anti-TLR4 or IgG) overnight at 4°C, then protein-A/G magnetic beads; immunoblotting; only the binder purified
T1 sequence: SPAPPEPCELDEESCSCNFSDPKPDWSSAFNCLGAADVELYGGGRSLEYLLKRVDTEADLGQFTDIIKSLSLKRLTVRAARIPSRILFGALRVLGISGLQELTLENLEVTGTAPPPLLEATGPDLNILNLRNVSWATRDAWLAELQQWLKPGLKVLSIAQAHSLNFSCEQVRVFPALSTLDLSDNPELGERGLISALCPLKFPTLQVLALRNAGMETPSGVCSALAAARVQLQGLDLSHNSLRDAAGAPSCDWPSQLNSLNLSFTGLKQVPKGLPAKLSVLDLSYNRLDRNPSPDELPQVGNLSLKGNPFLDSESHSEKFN

[2] = target: T2, recombinant murine CD14 (mouse) (UniProt P10810); assay: co-IP; 5 μM recombinant murine CD14 with 5 μM recombinant murine CXCL10 in 400 μL of 20 mM Tris-HCl pH 7.5, 250 mM NaCl, 30 min at room temperature; immunoprecipitated with anti-CD14 antibody and protein A/G magnetic beads at 4°C; immunoblotting; both purified
T2 sequence: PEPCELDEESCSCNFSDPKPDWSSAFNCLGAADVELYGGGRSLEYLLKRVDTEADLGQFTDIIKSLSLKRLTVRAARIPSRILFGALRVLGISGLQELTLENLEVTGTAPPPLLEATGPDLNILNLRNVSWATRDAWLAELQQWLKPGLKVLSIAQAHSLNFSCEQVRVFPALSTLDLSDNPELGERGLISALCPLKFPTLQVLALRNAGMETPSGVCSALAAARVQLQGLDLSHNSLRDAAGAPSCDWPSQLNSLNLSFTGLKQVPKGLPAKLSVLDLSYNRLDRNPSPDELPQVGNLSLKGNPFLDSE

B1: recombinant murine CXCL10 (ligand, UniProt P17515 22-98)
chain: IPLARTVRCNCIHIDDGPVRMRAIGKLEIIPASLSCPRVEIIATMKKNDEQRCLNPESKTIKNLMKAFSQKRSKRAP
- binding [1]: binds
- binding [2]: binds
